# Screening data

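293T-iDUX4 dual-reporter cells; luminescence of the tet-on Italica luciferase control is read after 24 h.
The test concentration is not given here.
Percent change in the Italica control signal; more negative values mean stronger inhibition, which points to nonspecific, tet-on or cytotoxic effects.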

Values are in %.
Common to all entries: measured here: Italica tet-on control reporter.
Part of the compounds only, not a random draw; the main read-out is not listed here.

| SMILES | activity change (%) |
|---|---|
| `COc1ccccc1CN1CC[C@@H]2[C@H]1c1cc(-c3cccc(C(=O)N(C)C)c3)ccc1N[C@@H]2CO` | -42.09 |
| `O=C(Nc1ccc(C(F)(F)F)cc1)Nc1ccc2c(c1)[C@H]1C[C@H](CC(=O)N3CCc4ccccc4C3)O[C@H](CO)[C@H]1O2` | -84.34 |
| `N#C[C@H]1[C@H](c2ccccc2C2=CCCC2)[C@H](CO)N1C(=O)NC1CCCCC1` | -27.3 |
| `O=C(C1CCC1)N1[C@@H](CO)[C@@H](c2ccccc2)C12CN(CCC(F)(F)F)C2` | -2.119 |
| `C[C@H](C(=O)N(C)C[C@@H]1OCc2ccccc2-c2c(n(C)c3ccccc23)C(=O)N([C@@H](C)CO)C[C@H]1C)c1ccccc1` | -37.18 |
| `COc1cccc(S(=O)(=O)N2CCCCN3[C@H](CO)[C@H](c4ccc(C5=CCCCC5)cc4)[C@@H]3C2)c1` | -34.27 |
| `COc1ccc2c3c(n(C)c2c1)[C@@H](CO)N(Cc1cccc(Cl)c1)CC31CN(C(=O)C2CC2)C1` | -8.79 |
| `C[C@H](CO)N1C[C@H](C)[C@H](CN(C)Cc2ccc(Cl)c(Cl)c2)OCc2ccccc2-c2c(n(C)c3ccccc23)C1=O` | -92.5 |
| `C[C@H]1CN([C@@H](C)CO)C(=O)c2c(c3ccccc3n2C)-c2ccccc2CO[C@@H]1CN(C)C(=O)CCC(F)(F)F` | -81.23 |
| `COc1ccc2c3c([nH]c2c1)[C@@H](CO)N(Cc1ccc(F)cc1)CC31CCN(C)CC1` | -65.61 |
| `O=C(C1CCCCC1)N1CC2(C1)[C@@H](c1ccccc1)[C@@H](CO)N2C(=O)c1cccnc1` | 1.836 |
| `CC(C)CC#Cc1ccc([C@H]2[C@H](CO)N3C(=O)CN(C(=O)c4ccc5c(c4)OCO5)C[C@@H]23)cc1` | -16.27 |
| `CO[C@@H]1CN(C)C(=O)c2cc(NC(=O)c3ccc(Oc4ccccc4)cc3)ccc2OC[C@H](C)NC[C@@H]1C` | -64.67 |
| `CN1c2ccc(-c3ccc(F)cc3)cc2[C@H]2[C@H](CCN2S(=O)(=O)c2cccc(F)c2)[C@@H]1CO` | -50.45 |
| `Cc1ccccc1-c1ccc([C@H]2[C@H]3CN(S(=O)(=O)c4ccc(F)cc4)CCCCN3[C@H]2CO)cc1` | -38.13 |
| `COc1ccc2c3c(n(C)c2c1)[C@@H](CO)NCC31CN(S(=O)(=O)c2cccc(C)c2)C1` | 2.978 |
| `COc1cccc(-c2ccc(C3[C@H]4CNC[C@@H]3N4Cc3ccc4c(c3)OCO4)cc2)c1` (stereo partly specified) | -70.44 |
| `O=C(c1cccnc1)N1CC(=O)N2[C@H](C1)[C@H](c1ccc(C#CCC3CCCC3)cc1)[C@@H]2CO` | -14.52 |
| `O=C(c1ccncc1)N1CC[C@@H]2[C@H]1c1cc(-c3ccc(F)cc3)ccc1N[C@@H]2CO` | -6.477 |
| `COc1ccc2c3c([nH]c2c1)[C@@H](CO)N(Cc1ccc(F)cc1)CC31CCN(C(=O)NC(C)C)CC1` | -16.92 |
| `CCCNC(=O)N1CC(=O)N2[C@H](CO)[C@@H](c3ccc(C#CCC4CCCC4)cc3)[C@H]2C1` | -19.95 |
| `CCC(=O)Nc1ccc2c(c1)OC[C@H](C)N(Cc1ccccc1F)C[C@@H](C)[C@@H](OC)CN(C)C2=O` | -0.4727 |
| `COc1cc(CN2CC3(CCN(C(=O)c4cccnc4)CC3)c3c([nH]c4cc(OC)ccc34)[C@@H]2CO)cc(OC)c1` | -6.122 |
| `Cc1cccc(S(=O)(=O)N(C)C[C@@H]2OCc3ccccc3-c3ccccc3C(=O)N([C@@H](C)CO)C[C@@H]2C)c1` | -21.65 |
| `O=C(c1cccnc1)N1CC[C@@H]2[C@H]1c1cc(-c3ccc(F)cc3)ccc1N[C@@H]2CO` | 1.152 |
| `O=C(C[C@@H]1C[C@@H]2c3cc(NS(=O)(=O)c4ccc(F)cc4)ccc3O[C@@H]2[C@H](CO)O1)NCc1ccc(Oc2ccccc2)cc1` | -43.98 |
| `O=C(NC1CCCC1)[C@@H]1[C@@H](CO)[C@@H]2Cn3c(ccc(-c4ccccc4)c3=O)[C@@H]2N1CCc1ccccc1` | -59.51 |
| `C[C@H](NC(=O)C[C@@H]1C[C@@H]2c3cc(NS(=O)(=O)c4ccc(F)cc4)ccc3O[C@@H]2[C@@H](CO)O1)c1ccccc1` | -11.57 |
| `C[C@@H](O)C#Cc1ccc([C@@H]2[C@H]3CN(C(=O)Nc4ccccc4)CCCCN3[C@H]2CO)cc1` | -4.536 |
| `N#C[C@H]1[C@@H](c2ccccc2-c2ccc(F)cc2)[C@H](CO)N1c1ncc(-c2ccccc2)s1` | -11.53 |
| `O=S(=O)(c1cccc(F)c1)N1CC[C@@H]2[C@H](CO)Nc3ccc(-c4cccc(F)c4)cc3[C@@H]21` | -25.04 |
| `C[C@H](CO)N1C[C@H](C)[C@@H](CN(C)S(=O)(=O)c2cccc(F)c2)OCc2ccccc2-c2c(n(C)c3ccccc23)C1=O` | -12.29 |
| `O=C(Cc1ccncc1)Nc1ccc2c(c1)[C@@H]1C[C@@H](CC(=O)NC3CCCCC3)O[C@H](CO)[C@@H]1O2` | -37.38 |
| `CCCN1C[C@H](C)[C@@H](OC)CN(C)C(=O)c2ccc(NC(=O)c3ccc(F)cc3)cc2OC[C@@H]1C` | -5.546 |
| `C[C@H](CO)N1C[C@H](C)[C@H](CN(C)C(=O)[C@@H]2CCCN2C)OCc2ccccc2-c2c(n(C)c3ccccc23)C1=O` | -1.246 |
| `COc1ccc2c3c(n(C)c2c1)[C@@H](CO)N(C(=O)NC(C)C)CC31CN(CC2CCCC2)C1` | 1.916 |
| `COc1ccc2c3c([nH]c2c1)[C@H](CO)N(C(=O)Nc1ccc(F)cc1)CC31CCN(C(=O)c2ccccc2F)CC1` | -22.2 |
| `CCN1[C@H](C(=O)NC2CCCCC2)[C@@H](CO)[C@@H]2Cn3c(ccc(-c4cccnc4)c3=O)[C@@H]21` | 4.007 |
| `COc1ccc2c3c(n(C)c2c1)[C@H](CO)NCC31CCN(C(=O)Nc2ccc3c(c2)OCO3)CC1` | -6.316 |
| `O=S(=O)(c1ccccc1F)N1C[C@@H]2N[C@H](C1)C2c1ccc(/C=C/c2ccccc2)cc1` (stereo partly specified) | -9.455 |
| `COc1ccc(S(=O)(=O)N2CCCCN3[C@H](CO)[C@H](c4ccc(C5=CCCC5)cc4)[C@@H]3C2)cc1` | -9.569 |
| `C[C@H](NC(=O)C[C@H]1CC[C@H]2[C@@H](COC[C@@H](O)CN2Cc2ccc(C(F)(F)F)cc2)O1)c1ccccc1` | -3.521 |
| `O=C(C[C@@H]1CC[C@@H]2[C@H](COC[C@@H](O)CN2C(=O)Nc2cc(Cl)cc(Cl)c2)O1)N1CCCCC1` | -17.59 |
| `O=C(C[C@@H]1CC[C@H]2[C@@H](COC[C@@H](O)CN2C(=O)c2ccccc2)O1)NCc1ccc(-c2ccccc2)cc1` | -7.772 |
| `C[C@H]1CN([C@@H](C)CO)C(=O)c2c(c3ccccc3n2C)-c2ccccc2CO[C@H]1CN(C)C(=O)Nc1ccc(F)cc1` | -18.49 |

Repeated from the top, 5 entries:

SMILES,activity change (%)
COc1ccccc1CN1CC[C@@H]2[C@H]1c1cc(-c3cccc(C(=O)N(C)C)c3)ccc1N[C@@H]2CO,-42.09
O=C(Nc1ccc(C(F)(F)F)cc1)Nc1ccc2c(c1)[C@H]1C[C@H](CC(=O)N3CCc4ccccc4C3)O[C@H](CO)[C@H]1O2,-84.34
N#C[C@H]1[C@H](c2ccccc2C2=CCCC2)[C@H](CO)N1C(=O)NC1CCCCC1,-27.3
O=C(C1CCC1)N1[C@@H](CO)[C@@H](c2ccccc2)C12CN(CCC(F)(F)F)C2,-2.119
C[C@H](C(=O)N(C)C[C@@H]1OCc2ccccc2-c2c(n(C)c3ccccc23)C(=O)N([C@@H](C)CO)C[C@H]1C)c1ccccc1,-37.18

Source: PubChem BioAssay AID1224904 (Broad Institute, 2016).